In experiment [1] the target is FLAG-Nurr1, expressed in 293F cells (UniProt P43354). Nature of the experiment: co-IP; 293F cells exogenously expressing FLAG-Nurr1 and/or HA-PARP1, immunoprecipitation followed by western blot. In general terms: Immunoblotting shows a protein as a band on a membrane.
For experiment [2], the target named is FLAG-Nurr1, in vitro translated (UniProt P43354). Nature of the experiment: pull-down; in vitro-translated FLAG-tagged proteins mixed with in vitro-translated HA-PARP1 for 1 h at room temperature, immunoprecipitated with anti-FLAG M2 agarose, western blot.
The target in experiment [3] is T1, FLAG-tagged malonyl-CoA (coenzyme A) decarboxylase (MLYCD), in vitro translated (UniProt O95822).
T1 sequence: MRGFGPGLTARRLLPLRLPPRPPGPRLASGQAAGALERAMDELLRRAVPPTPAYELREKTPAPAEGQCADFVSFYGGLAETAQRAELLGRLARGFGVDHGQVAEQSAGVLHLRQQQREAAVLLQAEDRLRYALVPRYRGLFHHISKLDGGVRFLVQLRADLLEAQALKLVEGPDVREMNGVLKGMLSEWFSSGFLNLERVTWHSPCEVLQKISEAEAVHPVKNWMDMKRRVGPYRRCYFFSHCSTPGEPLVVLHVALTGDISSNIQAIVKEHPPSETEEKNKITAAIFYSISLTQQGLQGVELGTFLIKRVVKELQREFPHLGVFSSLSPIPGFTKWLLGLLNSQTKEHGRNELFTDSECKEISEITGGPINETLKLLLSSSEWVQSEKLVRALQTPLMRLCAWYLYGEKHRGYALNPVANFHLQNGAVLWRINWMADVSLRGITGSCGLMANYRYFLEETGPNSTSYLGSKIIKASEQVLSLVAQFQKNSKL
Described as above.

Chains of the proteins cited; added tags and fusions are not shown. Lines headed by an entry give the natural chain unless they say otherwise; changes in a name come on top.
UniProt P43354: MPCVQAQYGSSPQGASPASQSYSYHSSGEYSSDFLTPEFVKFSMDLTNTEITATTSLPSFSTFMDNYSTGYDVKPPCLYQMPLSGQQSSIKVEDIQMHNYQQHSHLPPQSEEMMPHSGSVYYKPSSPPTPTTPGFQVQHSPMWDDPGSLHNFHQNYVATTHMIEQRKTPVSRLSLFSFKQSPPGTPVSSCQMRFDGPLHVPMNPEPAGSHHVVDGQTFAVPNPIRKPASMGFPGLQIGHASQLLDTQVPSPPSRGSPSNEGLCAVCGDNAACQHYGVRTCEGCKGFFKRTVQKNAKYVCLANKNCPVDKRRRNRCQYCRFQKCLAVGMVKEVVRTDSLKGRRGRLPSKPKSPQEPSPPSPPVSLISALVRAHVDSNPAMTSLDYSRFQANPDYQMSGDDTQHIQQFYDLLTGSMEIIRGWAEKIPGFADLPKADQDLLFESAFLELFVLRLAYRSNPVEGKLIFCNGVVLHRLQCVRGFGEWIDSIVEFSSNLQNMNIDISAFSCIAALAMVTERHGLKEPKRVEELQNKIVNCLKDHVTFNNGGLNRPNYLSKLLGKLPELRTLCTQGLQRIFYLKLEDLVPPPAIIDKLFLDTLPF
UniProt P09874: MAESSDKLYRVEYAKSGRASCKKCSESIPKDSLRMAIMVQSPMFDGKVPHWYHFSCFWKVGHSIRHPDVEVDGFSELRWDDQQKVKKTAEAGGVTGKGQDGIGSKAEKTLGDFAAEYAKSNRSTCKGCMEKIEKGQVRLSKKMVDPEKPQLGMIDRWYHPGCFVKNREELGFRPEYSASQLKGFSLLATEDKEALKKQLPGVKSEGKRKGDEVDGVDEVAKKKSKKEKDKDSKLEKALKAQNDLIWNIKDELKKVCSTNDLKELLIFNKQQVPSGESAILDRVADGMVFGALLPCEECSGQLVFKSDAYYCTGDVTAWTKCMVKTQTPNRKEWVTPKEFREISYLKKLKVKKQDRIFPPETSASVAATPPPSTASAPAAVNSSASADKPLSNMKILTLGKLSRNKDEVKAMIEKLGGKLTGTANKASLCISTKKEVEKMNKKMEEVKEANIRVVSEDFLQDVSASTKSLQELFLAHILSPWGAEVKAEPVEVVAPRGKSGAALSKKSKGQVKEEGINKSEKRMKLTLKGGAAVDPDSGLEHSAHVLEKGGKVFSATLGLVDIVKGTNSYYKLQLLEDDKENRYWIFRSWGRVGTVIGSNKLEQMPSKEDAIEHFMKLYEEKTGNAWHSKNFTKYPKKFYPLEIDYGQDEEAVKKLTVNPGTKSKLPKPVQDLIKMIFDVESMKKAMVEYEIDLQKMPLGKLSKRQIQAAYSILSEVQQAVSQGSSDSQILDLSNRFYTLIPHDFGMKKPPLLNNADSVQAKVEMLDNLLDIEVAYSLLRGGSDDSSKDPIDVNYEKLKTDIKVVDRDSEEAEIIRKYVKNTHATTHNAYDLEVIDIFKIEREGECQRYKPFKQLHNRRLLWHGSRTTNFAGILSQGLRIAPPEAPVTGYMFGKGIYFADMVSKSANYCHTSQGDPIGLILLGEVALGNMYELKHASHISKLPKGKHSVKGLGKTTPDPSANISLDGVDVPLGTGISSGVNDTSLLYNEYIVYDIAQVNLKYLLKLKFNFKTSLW

The target of experiment [4] is poly(ADP-ribose) polymerase 1 (PARP1), endogenous in H295R cells (human (endogenous in H295R)) (UniProt P09874). Nature of the experiment: co-IP; lysates of H295R cells stimulated with or without 100 nM angiotensin II for 6 h, endogenous proteins, western blot with anti-Nurr1 and anti-PARP1; rabbit IgG immunoprecipitates as negative control.

No constants are given. Whether binding was seen depends on the method and setting. Binding seen in cells or lysates may run through a third protein. Some results given as binding are weak or reduced against the parent protein; the word gives no strength. For some of these results: Where a sequence is shown, tags or fusion partners need not be part of it.

For the substance “HA-PARP1, expressed in 293F cells (from UniProt P09874 1-1014) (enzyme)”, in experiment [1], the binding entry is “binds”. For the substance “HA-PARP1, in vitro translated (from UniProt P09874 1-1014) (enzyme)”, the binding entry in experiment [2] is on record as “binds”; in experiment [3], “no binding”.

Take “Nurr1 (NR4A2), endogenous in H295R cells (from UniProt P43354 1-598)”: the binding entry in experiment [4] is on record as “binds”.
